These are yes or no findings as the source states them, for the method shown. In cells and extracts the contact can be indirect. These calls come from enrichment with a bait or labelling near it, and not all partners need be listed. Sequences can lack the tags named with a protein. One block for each binder: values may come before it.
How the values were obtained:
[1] = target: C1QBP (Q Subcomponent Binding Protein) (UniProt Q07021); assay: anti-FLAG immunoprecipitation, SDS-PAGE; band identified by mass spectrometry as C1QBP
ANT (human) = target: T1, ANT (human) (UniProt P05141); assay: anti-FLAG immunoprecipitation from HEK 293 T lysate, SDS-PAGE; band identified by mass spectrometry (Table 1)
T1 sequence: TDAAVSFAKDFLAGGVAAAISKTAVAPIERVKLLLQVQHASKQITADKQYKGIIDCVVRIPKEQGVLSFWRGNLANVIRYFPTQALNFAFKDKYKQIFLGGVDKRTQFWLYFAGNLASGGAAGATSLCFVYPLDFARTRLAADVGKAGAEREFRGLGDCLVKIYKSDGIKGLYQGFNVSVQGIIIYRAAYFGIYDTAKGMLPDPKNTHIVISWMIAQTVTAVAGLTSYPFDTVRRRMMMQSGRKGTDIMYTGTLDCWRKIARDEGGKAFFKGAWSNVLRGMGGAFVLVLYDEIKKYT

Amino acid sequences for entries named in this document (tags omitted). Residues count along the entry.
UniProt Q07021, residues 74-282: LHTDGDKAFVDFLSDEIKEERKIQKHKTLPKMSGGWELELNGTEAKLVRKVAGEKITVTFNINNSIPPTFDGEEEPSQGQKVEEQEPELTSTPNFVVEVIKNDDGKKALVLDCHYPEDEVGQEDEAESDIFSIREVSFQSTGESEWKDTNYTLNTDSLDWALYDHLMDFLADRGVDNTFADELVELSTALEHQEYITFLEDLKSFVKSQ

peroxiredoxin = target: T2, peroxiredoxin (UniProt Q06830); assay: anti-FLAG immunoprecipitation, SDS-PAGE; band identified by mass spectrometry as peroxiredoxin
T2 sequence (looked up): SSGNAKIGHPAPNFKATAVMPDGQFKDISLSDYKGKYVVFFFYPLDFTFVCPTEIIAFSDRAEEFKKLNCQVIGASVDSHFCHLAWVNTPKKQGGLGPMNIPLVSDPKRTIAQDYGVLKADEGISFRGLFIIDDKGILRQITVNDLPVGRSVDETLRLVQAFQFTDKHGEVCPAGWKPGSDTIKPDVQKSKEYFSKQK

binding [1]: binds
Binder: MRKGARRLCPAARVSMERRRPRLLRRRLRQWRWRPFLKKWTSSPPHTGG (peptide, not shown: small tags and cut ends) [FLAG-tagged ouORF21p (protein derived from ouORF21)]

binding (ANT (human)): binds
B1: FLAG-tagged uORF44p (protein derived from uORF44, an upstream ORF in the mRNA of ARHGEF9) (other, not shown: small tags and cut ends)
chain: MDSLTEQRLTSPNLPAPHLEHYSVLHCTMTLDVQTVVVFAVIVVLLLVNVILMFFLGTR
notes: Expressed from a pcDNA3 FLAG vector in HEK 293 T cells; also called uORF44 protein; mental activity-related protein

binding (peroxiredoxin): binds
B2: FLAG-tagged ouORF7p (protein derived from ouORF7) (protein, not shown: small tags and cut ends)
chain: MSAGRASGALSRTRTPLEPEPQQKPEPEPNHRCSPLNPGGALARARPPGPHVGTTA
